Results reported in the supplement of paper PMC8728848.
This is one part of the list.

Tests used:
Assay in all cases: glycan array binding signal (z-score within array); higher = stronger binding
Details in all cases: glycan notation: IUPAC condensed, linker removed
[1] = target: GlcNAc(b1-3)Gal(b1-4)GlcNAc(b1-3)GalNAc
In short: (§1)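 Glycan array data were curated from 3228 arrays in the Consortium for Functional Glycomics database and kept only where the protein sequence was available. Glycan names were converted to IUPAC-condensed notation, and columns mapping to the same glycan were averaged. The binding signal is a within-array Z-score, averaged across arrays of the same protein sequence at different concentrations or buffers and across linkers. Negative Z-scores can be read as non-binding.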

[2] = target: GlcNAc(b1-3)Gal(b1-4)GlcNAc(b1-3)[GlcNAc(b1-3)Gal(b1-4)GlcNAc(b1-3)]GalNAc
In short: as §1

[3] = target: GlcNAc(b1-3)Gal(b1-4)GlcNAc(b1-6)[Gal(b1-3)]GalNAc
In short: as §1

[4] = target: GlcNAc(b1-3)Gal(b1-4)GlcNAc(b1-6)[GlcNAc(b1-3)Gal(b1-3)]GalNAc
In short: as §1

[5] = target: GlcNAc(b1-3)Gal(b1-4)GlcNAc(b1-6)[GlcNAc(b1-3)]Gal(b1-4)GlcNAc
In short: as §1

GlcNAc(b1-3)GalNAc = target: GlcNAc(b1-3)GalNAc
In short: as §1

GlcNAc(b1-3)Man = target: GlcNAc(b1-3)Man
In short: as §1

[6] = target: GlcNAc(b1-3)[GlcNAc(b1-4)][GlcNAc(b1-6)]GlcNAc
In short: as §1

[7] = target: GlcNAc(b1-3)[GlcNAc(b1-6)]Gal(b1-4)GlcNAc
In short: as §1

[8] = target: GlcNAc(b1-3)[GlcNAc(b1-6)]GalNAc
In short: as §1

[9] = target: GlcNAc(b1-4)Gal(b1-4)GlcNAc
In short: as §1

GlcNAc(b1-4)GlcNAc = target: GlcNAc(b1-4)GlcNAc
In short: as §1

[10] = target: GlcNAc(b1-4)GlcNAc(b1-4)GlcNAc
In short: as §1

[11] = target: GlcNAc(b1-4)GlcNAc(b1-4)GlcNAc(b1-4)GlcNAc(b1-4)GlcNAc
In short: as §1

[12] = target: GlcNAc(b1-4)GlcNAc(b1-4)GlcNAc(b1-4)GlcNAc(b1-4)GlcNAc(b1-4)GlcNAc
In short: as §1

[13] = target: GlcNAc(b1-4)[GlcNAc(b1-6)]GalNAc
In short: as §1

[14] = target: GlcNAc(b1-6)Gal(b1-4)GlcNAc
In short: as §1

GlcNAc(b1-6)GalNAc = target: GlcNAc(b1-6)GalNAc
In short: as §1

[15] = target: GlcNAc6S(b1-3)Gal(b1-4)GlcNAc
In short: as §1

Kdn(a2-3)Gal(b1-3)GalNAc = target: Kdn(a2-3)Gal(b1-3)GalNAc
In short: as §1

Kdn(a2-3)Gal(b1-3)GlcNAc = target: Kdn(a2-3)Gal(b1-3)GlcNAc
In short: as §1

Kdn(a2-3)Gal(b1-4)Glc = target: Kdn(a2-3)Gal(b1-4)Glc
In short: as §1

Kdn(a2-3)Gal(b1-4)GlcNAc = target: Kdn(a2-3)Gal(b1-4)GlcNAc
In short: as §1

[16] = target: Kdn(a2-3)Gal(b1-4)[Fuc(a1-3)]GlcNAc
In short: as §1

Kdn(a2-6)Gal(b1-4)GlcNAc = target: Kdn(a2-6)Gal(b1-4)GlcNAc
In short: as §1

[17] = target: Man(a1-2)Man(a1-2)Man(a1-3)Man
In short: as §1

[18] = target: Man(a1-2)Man(a1-2)Man(a1-6)[Man(a1-3)]Man
In short: as §1

Man(a1-2)Man(a1-3)Man = target: Man(a1-2)Man(a1-3)Man
In short: as §1

[19] = target: Man(a1-2)Man(a1-3)[Man(a1-2)Man(a1-6)]Man
In short: as §1

[20] = target: Man(a1-2)Man(a1-3)[Man(a1-2)Man(a1-6)]Man(a1-6)[Man(a1-2)Man(a1-2)Man(a1-3)]Man
In short: as §1

[21] = target: Man(a1-2)Man(a1-3)[Man(a1-2)Man(a1-6)]Man(a1-6)[Man(a1-2)Man(a1-2)Man(a1-3)]Man(b1-4)GlcNAc(b1-4)GlcNAc
In short: as §1

[22] = target: Man(a1-2)Man(a1-3)[Man(a1-6)]Man(a1-6)[Man(a1-2)Man(a1-3)]Man(b1-4)GlcNAc(b1-4)GlcNAc
In short: as §1

[23] = target: Man(a1-2)Man(a1-6)[Man(a1-3)]Man(a1-6)[Man(a1-2)Man(a1-2)Man(a1-3)]Man
In short: as §1

[24] = target: Man(a1-2)Man(a1-6)[Man(a1-3)]Man(a1-6)[Man(a1-2)Man(a1-2)Man(a1-3)]Man(b1-4)GlcNAc(b1-4)GlcNAc
In short: as §1

Man(a1-3)[Man(a1-6)]Man = target: Man(a1-3)[Man(a1-6)]Man
In short: as §1

[25] = target: Man(a1-3)[Man(a1-6)]Man(a1-6)[Man(a1-2)Man(a1-3)]Man(b1-4)GlcNAc(b1-4)GlcNAc
In short: as §1

[26] = target: Man(a1-3)[Man(a1-6)]Man(a1-6)[Man(a1-3)]Man
In short: as §1

[27] = target: Man(a1-3)[Man(a1-6)]Man(a1-6)[Man(a1-3)]Man(b1-4)GlcNAc(b1-4)GlcNAc
In short: as §1

[28] = target: Man(a1-3)[Man(a1-6)]Man(b1-4)GlcNAc(b1-4)GlcNAc
In short: as §1

[29] = target: Man(a1-3)[Man(a1-6)]Man(b1-4)GlcNAc(b1-4)[Fuc(a1-6)]GlcNAc
In short: as §1

Man(a1-6)Man = target: Man(a1-6)Man
In short: as §1

Man(b1-4)GlcNAc = target: Man(b1-4)GlcNAc
In short: as §1

MurNAc(b1-4)GlcNAc = target: MurNAc(b1-4)GlcNAc
In short: as §1

Neu5Ac(a2-3)Gal = target: Neu5Ac(a2-3)Gal
In short: as §1

[30] = target: Neu5Ac(a2-3)Gal(b1-3)GalNAc
In short: as §1

B1: Pbx1CASH domain (Cryptococcus neoformans) (protein)
chain: MDETKPLWGNPRADGISLACKDSIVERNVVYDATDGAIVLFGSAGSTVKNNHVYARTRVILGGINLVDYEPWDGDYTNVKVHHNHLYALGRYFKVGIVIGPASWSDDTESVVHSASVTDNEFSGGYWGYGIVVASAKNFEVLRNKVIWDGEQGVARFSGVPGS
glycan array binding signal (z-score) [1]: -0.408
glycan array binding signal (z-score) [2]: -0.542
glycan array binding signal (z-score) [3]: 0.217
glycan array binding signal (z-score) [4]: 0.647
glycan array binding signal (z-score) [5]: 1.15
glycan array binding signal (z-score) (GlcNAc(b1-3)GalNAc): -0.874
glycan array binding signal (z-score) (GlcNAc(b1-3)Man): 0.12
glycan array binding signal (z-score) [6]: -0.226
glycan array binding signal (z-score) [7]: -0.897
glycan array binding signal (z-score) [8]: -0.556
glycan array binding signal (z-score) [9]: -0.389
glycan array binding signal (z-score) (GlcNAc(b1-4)GlcNAc): -0.404
glycan array binding signal (z-score) [10]: -0.165
glycan array binding signal (z-score) [11]: 0.821
glycan array binding signal (z-score) [12]: 0.043
glycan array binding signal (z-score) [13]: -0.808
glycan array binding signal (z-score) [14]: -0.623
glycan array binding signal (z-score) (GlcNAc(b1-6)GalNAc): -0.421
glycan array binding signal (z-score) [15]: -0.031
glycan array binding signal (z-score) (Kdn(a2-3)Gal(b1-3)GalNAc): -0.351
glycan array binding signal (z-score) (Kdn(a2-3)Gal(b1-3)GlcNAc): -0.869
glycan array binding signal (z-score) (Kdn(a2-3)Gal(b1-4)Glc): 0.618
glycan array binding signal (z-score) (Kdn(a2-3)Gal(b1-4)GlcNAc): -0.908
glycan array binding signal (z-score) [16]: 0.887
glycan array binding signal (z-score) (Kdn(a2-6)Gal(b1-4)GlcNAc): 0.385
glycan array binding signal (z-score) [17]: -0.535
glycan array binding signal (z-score) [18]: 0.606
glycan array binding signal (z-score) (Man(a1-2)Man(a1-3)Man): -0.534
glycan array binding signal (z-score) [19]: -0.95
glycan array binding signal (z-score) [20]: -0.112
glycan array binding signal (z-score) [21]: 1.9
glycan array binding signal (z-score) [22]: -0.145
glycan array binding signal (z-score) [23]: -0.129
glycan array binding signal (z-score) [24]: 0.614
glycan array binding signal (z-score) (Man(a1-3)[Man(a1-6)]Man): 0.377
glycan array binding signal (z-score) [25]: 0.737
glycan array binding signal (z-score) [26]: -0.5
glycan array binding signal (z-score) [27]: 0.71
glycan array binding signal (z-score) [28]: 0.022
glycan array binding signal (z-score) [29]: -0.814
glycan array binding signal (z-score) (Man(a1-6)Man): -0.291
glycan array binding signal (z-score) (Man(b1-4)GlcNAc): -0.348
glycan array binding signal (z-score) (MurNAc(b1-4)GlcNAc): -0.487
glycan array binding signal (z-score) (Neu5Ac(a2-3)Gal): -0.64
glycan array binding signal (z-score) [30]: 0.436
